PubChem BioAssay AID743121 | NCATS | 2013

Assay: 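Knock-downs that sensitise breast cancer cells to camptothecin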 (primary screen)
Cell system: MDA-MB-231 cells, a human breast cancer line
Knock-down reagent: single siRNA against human genes, 20 nM siRNA (0.8 pmol per well)
Timing: 120 h (drug added 48 h after transfection, read 72 h later)
Conditions: camptothecin 20 nM (about EC30) for 72 h; vehicle 0.1% DMSO in parallel plates
Measured: 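CellTiter-Glo ATP signal, scaled to control siRNA as percent viability; sensitisation given as log2 of untreated divided by camptothecin-treated viability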
Scale: log2 vehicle/camptothecin viability: higher = stronger sensitisation to camptothecin; viability with camptothecin: higher = more viable cells
Units: viability with camptothecin in % of control
Hit rule: 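Active genes have an RSA gene-level p-value below 0.001, computed from the ratios of their separate siRNAs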
This is a random part of about 26,000 deposited reagents. 167 of all reagents (0.63%) were called active. 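Calls are per gene from RSA p-values that are not deposited; an individual active-marked siRNA can sensitise only weakly.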 Reagents against one gene are numbered here. Not all columns of the deposit are shown. Reagent sequences are not shown.

With MED15 (mediator complex subunit 15) #1, what does the deposit list?
log2 vehicle/camptothecin viability: -0.564; viability with camptothecin: 116; activity call: inactive

With MED15 (mediator complex subunit 15) #2, what was measured?
log2 vehicle/camptothecin viability: -0.0407; viability with camptothecin: 55.7; activity call: inactive

With MED15 (mediator complex subunit 15) #3, what does the deposit list?
log2 vehicle/camptothecin viability: -0.223; viability with camptothecin: 44.1; activity call: inactive

Which result is listed for MED15 (mediator complex subunit 15) #4?
log2 vehicle/camptothecin viability: 0.602; viability with camptothecin: 32.3; activity call: inactive

Which result is listed for IL9R (interleukin 9 receptor) #1?
log2 vehicle/camptothecin viability: -0.195; viability with camptothecin: 60.4; activity call: inactive

With IL9R (interleukin 9 receptor) #2, what was measured?
log2 vehicle/camptothecin viability: -0.0232; viability with camptothecin: 41.9; activity call: inactive

For IL9R (interleukin 9 receptor) #3, how do the results read?
log2 vehicle/camptothecin viability: 0.262; viability with camptothecin: 70.1; activity call: inactive

Which result is listed for IL9R (interleukin 9 receptor) #4?
log2 vehicle/camptothecin viability: -0.129; viability with camptothecin: 64.9; activity call: inactive

What did the screen give for CDC14C (cell division cycle 14C) #1?
log2 vehicle/camptothecin viability: 0.0988; viability with camptothecin: 48.6; activity call: inactive

Which result is listed for CDC14C (cell division cycle 14C) #2?
log2 vehicle/camptothecin viability: 0.0571; viability with camptothecin: 73.9; activity call: inactive

For CDC14C (cell division cycle 14C) #3, what does the deposit list?
log2 vehicle/camptothecin viability: 0.128; viability with camptothecin: 58.5; activity call: inactive

With ITPKA (inositol-trisphosphate 3-kinase A) #1, what was measured?
log2 vehicle/camptothecin viability: 0.213; viability with camptothecin: 47.2; activity call: inactive

What did the screen give for ITPKA (inositol-trisphosphate 3-kinase A) #2?
log2 vehicle/camptothecin viability: -0.343; viability with camptothecin: 102; activity call: inactive

With ITPKA (inositol-trisphosphate 3-kinase A) #3, what was measured?
log2 vehicle/camptothecin viability: -0.163; viability with camptothecin: 54.2; activity call: inactive

What is on record for ITPKA (inositol-trisphosphate 3-kinase A) #4?
log2 vehicle/camptothecin viability: -0.445; viability with camptothecin: 103; activity call: inactive

For GGCX (gamma-glutamyl carboxylase) #1, what does the deposit list?
log2 vehicle/camptothecin viability: -0.0684; viability with camptothecin: 93.9; activity call: inactive

What did the screen give for GGCX (gamma-glutamyl carboxylase) #2?
log2 vehicle/camptothecin viability: -0.156; viability with camptothecin: 111; activity call: inactive

Which result is listed for GGCX (gamma-glutamyl carboxylase) #3?
log2 vehicle/camptothecin viability: -0.27; viability with camptothecin: 35.2; activity call: inactive

Which result is listed for GGCX (gamma-glutamyl carboxylase) #4?
log2 vehicle/camptothecin viability: -0.51; viability with camptothecin: 82; activity call: inactive

With LRP12 (LDL receptor related protein 12) #1, what was measured?
log2 vehicle/camptothecin viability: -0.111; viability with camptothecin: 112; activity call: inactive

What is on record for LRP12 (LDL receptor related protein 12) #2?
log2 vehicle/camptothecin viability: -0.146; viability with camptothecin: 127; activity call: inactive

What is on record for LRP12 (LDL receptor related protein 12) #3?
log2 vehicle/camptothecin viability: -0.0975; viability with camptothecin: 89.5; activity call: inactive

With LRP12 (LDL receptor related protein 12) #4, what was measured?
log2 vehicle/camptothecin viability: -0.249; viability with camptothecin: 126; activity call: inactive

With AIFM3 (AIF family member 3) #1, what does the deposit list?
log2 vehicle/camptothecin viability: -0.483; viability with camptothecin: 40; activity call: active

With AIFM3 (AIF family member 3) #2, what was measured?
log2 vehicle/camptothecin viability: -0.257; viability with camptothecin: 81.6; activity call: active

How did the screen score AIFM3 (AIF family member 3) #3?
log2 vehicle/camptothecin viability: 2.41; viability with camptothecin: 15.7; activity call: active

How did the screen score AIFM3 (AIF family member 3) #4?
log2 vehicle/camptothecin viability: 0.0331; viability with camptothecin: 84.7; activity call: active

2 of these entries in another layout:
target gene	siRNA no.	log2 vehicle/camptothecin viability	viability with camptothecin	activity call
GGCX (gamma-glutamyl carboxylase)	4	-0.51	82	inactive
LRP12 (LDL receptor related protein 12)	1	-0.111	112	inactive
